In patent US20190203273:
For at least one entry, the source does not settle the construct or the ends of the probe.

System: Nb.BsrDI nicking endonuclease
Assay: enzyme reaction in vitro
Conditions: T15 carries Atto 594, T28 carries BHQ-2; 5' phosphate on oligonucleotide 5; iterated nicking of oligonucleotide 4 at 56 C releases Atto 594 fluorescence; Mg acetate, K acetate, pH 7.9; no significant signal without dNTPs; purified recombinant protein; protein details: New England Biolabs; label: Atto 594/BHQ-2

TTCATCAGTATACTTGCTAACATTGCATAGGTTCACGATA / GTTAGCAAGA
activity on this sequence: active
